Inconclusive results, whose numbers are uncertain, are shown with a selection of clear calls. Potencies of inconclusive entries are doubtful fits and often do not repeat. Calls of active or inactive are those of the source. Calls follow the shape of the dose curve; as a rule, active = well fitted inhibition curve with a large enough effect; inconclusive = small, poorly fitted or top-dose-only effect; inactive = no such curve, though single readings can be large or run the other way. *1 amine or outer side, *2 acyl side, *3 side chain or, on linkers, in order; H or OH if unused. Where a SMILES comes first, the peptide text is derived from it. Bridges are numbered along the chain shown (N, C = ends). [ ]: non-standard residue; d: D form. The star is where a group is joined. pTerphenylCO(4''-OnC5H11) = CCCCCOc1ccc(-c2ccc(-c3ccc(C(=O)*)cc3)cc2)cc1; Orn(4R-OH,5R-OH) = O=C([C@H](C[C@@H](O)[C@@H](O)N[*:3])N[*:1])[*:2]; hTyr(3S-OH,4S-OH) = N[C@H](C(=O)O)[C@H](O)[C@@H](O)c1ccc(O)cc1; Pro(3S-OH,4S-Me) = C[C@H]1CN[C@H](C(=O)O)[C@H]1O; Hyp = O=C(O)[C@@H]1C[C@@H](O)CN1
target: N-terminal Xaa-Pro-Lys N-methyltransferase 1 (Homo sapiens) (UniProt Q9BV86); assay: Orthogonal qHTS for Inhibitors of N-terminal methyltransferase 1 (NTMT1): ThioGlo Assay; settings: NTMT1 SAHH-coupled ThioGlo fluorescence, 30 min; series mostly up to 84.5 µM
Source text: Assay Submitter (PI): Rong Huang Ph.D. Purdue University, West Lafayette, IN 47907 The N-terminal methytransferase 1 is the first methyltransferase that methylates protein alpha-N-amines and plays an important role in regulating cell mitosis, chromatin interactions and DNA repair. It is observed to be over-expressed in various cancer patient tissues like malignant melanoma and colorectal cancer tissues. Knockdown of NTMT1 in cancer cells causes cell mitotic defects and enhances sensitivity to DNA damaging chemotherapeutics. […] These critical cellular processes in which NTMT1 is implicated, coupled with emerging links to cellular dysfunction, strengthen the inference that NTMT1 is a compelling novel anticancer target. Progress have been made in understanding the molecular properties of NTMT1 and the biological consequences of protein alpha-N-terminal methylation, but there are no specific small molecule probes available for NTMT1 to fully characterize its MTase activity. To address this unmet need, a panel of assay is created and established to enable quantitative high-throughput screening (qHTS) for novel, potent, and selective small molecule NTMT1 inhibitors. Two orthogonal qHTS that use different reagents (ThioGlo vs. MTaseGlo) are developed for primary robotic screening against the NCATS chemical library of more than 400,000 small molecules. Identified inhibitors are reacquired, validated, and further characterized. […] Early Translation Branch (ETB) National Center for Advancing Translational Sciences (NCATS) National Institute of Health (NIH)
Materials: NTMT1 enzyme, substrate SPKRIA, control peptide RCC1-6 is provided by the Huang laboratory. MTaseGlo Assay: PROTOCOL TABLE; SEQUENCE No. (e.g., 1, 2, 3, etc.); […] (e.g., Cells, Incubation, Reagent, etc.); VALUE; DESCRIPTION 1; Enzyme; 3 uL; Dispense enzyme mixture (final concentrations of 125 nM NTMT1) into Greiner 1536-well black / solid bottom assay plate (Greiner Bio One, Monroe, NC). 2; Compounds; 23 nL; Compounds (at various concentration) and 1uM final concentration of RCC1-6 (SPKRIA) control were transferred via a Kalypsys Pin Tool (Wako USA) equipped with a 1536-slotted pin array (Wako Automation, Richmond, VA). 3; Incubation; 1 min; Incubate at room temperature. 4; Substrate; 1 uL; Dispense 1 uL of substrate solution (100uM SAM, 10uM SAHH, 15uM ThioGlo3 final concentration) was added to the wells bringing the final assay volume to 4uL. The assay plate was covered with metal lids. 5; Detection; Fluorescence; Initial fluorescence readout (background signal) was detected using the ViewLux microplate imager with an excitation filter of 340 nm and 450 nm emission filter. 6; Incubation; 30 min; Assay plates were incubation at room temperature in the dark. 7; Detection; Fluorescence; Final fluorescence readout was detected using the ViewLux microplate imager with an excitation filter of 340 nm and 450 nm emission filter. The data was normalized to the background fluorescence.

The chains behind the UniProt entries cited, without tags or fusion partners. Where a name states a change or a piece, a line headed by the entry shows the natural chain unless it says otherwise.
UniProt Q9BV86: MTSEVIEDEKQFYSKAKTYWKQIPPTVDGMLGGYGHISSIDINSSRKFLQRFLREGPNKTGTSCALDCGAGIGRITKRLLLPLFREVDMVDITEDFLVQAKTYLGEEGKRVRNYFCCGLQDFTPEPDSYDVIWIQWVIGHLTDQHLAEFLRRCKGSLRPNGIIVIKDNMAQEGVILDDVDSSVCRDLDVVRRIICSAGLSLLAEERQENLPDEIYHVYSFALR

Compound	Potency
COc1cccc(-c2nnc3n2N=C(c2ccccc2OC)CS3)c1	inconclusive: 34.5 µM [inhibitor, partial curve]
CCN1CCCN(c2nc(NC3CCN(C(C)C)CC3)c3cc(OC)c(OCCCN4CCCC4)cc3n2)CC1	inconclusive: 21.8 µM [inhibitor, single point]
Cc1ccc(S(=O)(=O)Nc2cnccc2C(=O)Nc2nc(-c3cccc(C)c3)cs2)cc1	inactive
CCOc1ccccc1N1CC(c2nc3ccccc3n2CCCCOc2cc(C)ccc2C)CC1=O (stereo not given)	inactive
COc1ccccc1NC(=O)Nc1ccc2ccccc2c1	inconclusive: 39.3 µM [inhibitor, partial curve]
COc1cc2c(NC3CCN(C(C)C)CC3)nc(N3CCCCC3)nc2cc1OCCCN1CCCCC1	inactive
C=Cc1c(C)c2cc3[nH]c(cc4nc(cc5nc(cc1[nH]2)C(C)=C5CCC(=O)O)C(CCC(=O)O)=C4C)c(C)c3C=C	active: 15.4 µM
O=C(Cc1c(F)cccc1F)Nc1cc(OCc2ccc(Cl)cc2)ccn1	inconclusive: 15.6 µM [inhibitor, full curve, poor fit]
COc1cc2c(NC3CCN(C4CCCCC4)CC3)nc(N3CCCN(C)CC3)nc2cc1OCCCN1CCCCC1	active: 43.5 µM
CCN(CC)CCNC(=O)c1c(C)[nH]c(/C=C2\C(=O)Nc3ccc(F)cc32)c1C	inconclusive: 34.5 µM [inhibitor, partial curve, poor fit]
C/C=C/c1ccc2oc(-c3ccc(O)c(OC)c3)c(C)c2c1	inconclusive: 35 µM [inhibitor, partial curve, poor fit]
CCOc1ccc(Nc2nc(-c3c(C)nc4ccccn34)cs2)cc1	active: 3.12 µM
COc1cc2c(NC3CCN(CC4CCCCC4)CC3)nc(N3CCCN(C)CC3)nc2cc1OCCOCCN(C)C	inactive
C[C@]12C[C@H](O)[C@H]3[C@@H](CCC4=CC(=O)CC[C@@]43C)[C@@H]1CC[C@@H]2C(=O)CO	inactive
O=C(Nc1ccccc1)c1ccc(Nc2nnc(-c3ccc(O)cc3)c3ccccc23)cc1	active: 27.8 µM
COc1cc2c(NC3CCN(C(C)C)CC3)nc(N3CCCN(C4CCCCC4)CC3)nc2cc1OCCCN1CCCCC1	inconclusive: 68.9 µM [inhibitor, single point]
Clc1ccc(Nc2nnc(Cc3ccncc3)c3ccccc23)cc1	active: 62.2 µM
COc1cc2c(NC3CCN(C4CCCCC4)CC3)nc(N3CCCN(C)CC3)nc2cc1OCCOCCN(C)C	active: 43.5 µM
COc1cc(OC)cc(-c2nnc3n2N=C(c2ccccc2OC)CS3)c1	inconclusive: 38.8 µM [inhibitor, partial curve]
Cc1cc(C)c2c(N)c(C(=O)NCc3ccc(Cl)cc3)sc2n1	inactive

Compound	Potency
COc1cccc(C2=Nn3c(nnc3-c3ccccc3C)SC2)c1	active: 27.4 µM
COc1cc2c(NC3CCN(C(C)C)CC3)nc(N3CCCN(C)CC3)nc2cc1OCCCN1CCCCC1	inconclusive: 30.8 µM [inhibitor, partial curve, poor fit]
Cc1cc(-c2ncc(CC(=O)Nc3ccc(-c4cnccn4)cn3)cc2C)ccn1	inconclusive: 15.6 µM [inhibitor, partial curve]
COc1cc2nc(N(C)C)nc(NC3CCN(C)CC3)c2cc1OC	inactive
CCOc1ccc(Cc2nc(-c3c(C)nc4ccccn34)cs2)cc1	inconclusive: 2.78 µM [inhibitor, full curve, poor fit]
COc1cc2nc(N3CCOCC3)nc(NC(C)C)c2cc1OC	inactive
CN(C)C(=O)Nc1cc(-c2ccccc2)ccc1N(C)C	inconclusive: 49.4 µM [inhibitor, partial curve, poor fit]
NCC(O)C1CCCCCCC1 (stereo not given)	inactive
Cc1cc2c(c(=O)[nH]1)OC(C(O)CC(C)C)O2 (stereo not given)	active: 19.7 µM
COc1ccc(-c2nnc3n2N=C(c2cc(OC)ccc2OC)CS3)cc1	inconclusive: 24.5 µM [inhibitor, partial curve]
N=C(N)c1ccc(OCCCCCOc2ccc(C(=N)N)cc2)cc1	inconclusive: 30.8 µM [inhibitor, partial curve]
C/C=C/C=C/C=C/C(=O)O[C@@H]1C=C2COC(=O)[C@]2(O)[C@@]2(C)CCCC(C)(C)[C@H]12	inconclusive: 21.5 µM [inhibitor, partial curve, poor fit]
COc1ccnc(NC(=S)N2CCN(c3cccc(Cl)c3Cl)CC2)c1	active: 3.88 µM
CCCCCOc1ccc(-c2ccc(-c3ccc(C(=O)N[C@H]4C[C@@H](O)[C@@H](O)NC(=O)[C@@H]5[C@@H](O)[C@@H](C)CN5C(=O)[C@H]([C@@H](C)O)NC(=O)[C@H]([C@H](O)[C@@H](O)c5ccc(O)cc5)NC(=O)[C@@H]5C[C@@H](O)CN5C(=O)[C@H]([C@@H](C)O)NC4=O)cc3)cc2)cc1 ({pTerphenylCO(4''-OnC5H11)}-[Orn(4R-OH,5R-OH)]T[Hyp][hTyr(3S-OH,4S-OH)]T[Pro(3S-OH,4S-Me)]; lactam 1-C)	inconclusive: 21.5 µM [inhibitor, partial curve, poor fit]
c1cc(CN2CCCCC2)cc(OCCCNc2nc3ccccc3s2)c1	inactive
COc1cc2nc(N3CCCCC3)nc(NC3CC3)c2cc1OC	inconclusive: 43.5 µM [inhibitor, single point]
CN(C)CCOc1ccc(-c2nc(-c3ccc4c(c3)CC/C4=N\O)c(-c3ccncc3)[nH]2)cc1	inconclusive: 34.5 µM [inhibitor, partial curve]
CC[N+](CC)(CC)CCOc1cccc(OCC[N+](CC)(CC)CC)c1OCC[N+](CC)(CC)CC	active: 0.614 µM
O=C(NCCN1CCCC1)c1cc(-c2ccc(CN3CCOCC3)cc2)nc2ccc(F)cc12	active: 24.1 µM
O=C(O)c1cc(N(Cc2ccc(C3CCCCC3)cc2)C(=O)c2ccc(Oc3ccccc3)cc2)ccc1O	inconclusive: 34.5 µM [inhibitor, partial curve]

3 structures already listed, sorted by formula weight, ascending.
Compound	Potency
CN(C)C(=O)Nc1cc(-c2ccccc2)ccc1N(C)C	inconclusive: 49.4 µM [inhibitor, partial curve, poor fit]
Cc1cc(-c2ncc(CC(=O)Nc3ccc(-c4cnccn4)cn3)cc2C)ccn1	inconclusive: 15.6 µM [inhibitor, partial curve]
COc1ccnc(NC(=S)N2CCN(c3cccc(Cl)c3Cl)CC2)c1	active: 3.88 µM

— PubChem BioAssay AID1645875 (National Center for Advancing Translational Sciences (NCATS), 2021)
